Source: PubChem BioAssay AID1259254 (NCATS, 2017)
Aim: 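Genome-wide screen for genes that prevent DNA re-replication in cancer cells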 (primary screen). System: human HCT116 colorectal cancer cells. Reagent: single siRNA against human genes. Timing: 3 days. Read-out: 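Nuclei stained with Hoechst and imaged; cell-cycle phase assigned by DNA content; G2 share scaled per plate, non-targeting siRNA 0%, GMNN siRNA 100%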. Scale: G2 robust z-score: higher = more G2 cells, more excess DNA replication. Call rule: 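An siRNA counts as active if its G2 robust z-score lies at least 5 MADs above the screen median; here such calls match roughly 38% of GMNN control or more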.
Shown is a random part of about 59,000 reagents. About 1,550 of all reagents (2.6%) were called active. 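G2 share is only a proxy for re-replication; each gene was hit by three separate siRNAs, and active genes were retested.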 Entries without a mark were called inactive. Further read-outs or replicates are left out here. The record does not give: the amount of reagent.

Target gene,PubChem SID,G2 robust z-score
CIRBP (GeneID 1153),SID160743662,-0.224
CIRBP (GeneID 1153),SID160743673,-0.994
CIRBP (GeneID 1153),SID160743683,1.46
RHBDD1 (GeneID 84236),SID160751930,-0.587
RHBDD1 (GeneID 84236),SID160751931,-0.914
RHBDD1 (GeneID 84236),SID160751932,-1.08
GLB1L2 (GeneID 89944),SID160753519,0.375
GLB1L2 (GeneID 89944),SID160753520,0.531
GLB1L2 (GeneID 89944),SID160753521,0.0943
WFDC9 (GeneID 259240),SID160762603,0.668
WFDC9 (GeneID 259240),SID160762605,1.92
WFDC9 (GeneID 259240),SID160762606,0.336
FH (GeneID 2271),SID160765609,-1.05
FH (GeneID 2271),SID160765617,2.19
FH (GeneID 2271),SID160765627,0.862
MAP3K9 (GeneID 4293),SID160777281,-0.676
MAP3K9 (GeneID 4293),SID160777282,0.204
MAP3K9 (GeneID 4293),SID160777283,-0.0204
RAN (GeneID 5901),SID160715633,0.0923
RAN (GeneID 5901),SID160715634,-0.707
RAN (GeneID 5901),SID160715635,3.8
LYZL1 (GeneID 84569),SID160752423,-0.332
LYZL1 (GeneID 84569),SID160752424,-0.592
LYZL1 (GeneID 84569),SID160752425,-0.551
SYNC (GeneID 81493),SID160735001,0.791
SYNC (GeneID 81493),SID160750750,2.95
SYNC (GeneID 81493),SID160750751,0.507
RPS6KA3 (GeneID 6197),SID160716153,0.181
RPS6KA3 (GeneID 6197),SID160716155,-0.923
RPS6KA3 (GeneID 6197),SID160716156,-1.02
NUDT11 (GeneID 55190),SID160743176,1.69
NUDT11 (GeneID 55190),SID160743177,0.739
NUDT11 (GeneID 55190),SID160743178,-0.858
NXPE1 (GeneID 120400),SID160755806,1.13
NXPE1 (GeneID 120400),SID160755807,0.532
NXPE1 (GeneID 120400),SID160755808,0.484
UPF2 (GeneID 26019),SID160737466,-0.894
UPF2 (GeneID 26019),SID160737467,5.52 (active)
UPF2 (GeneID 26019),SID160737468,-0.0407
DDX39A (GeneID 10212),SID160727055,-0.738
DDX39A (GeneID 10212),SID160727060,-0.00713
DDX39A (GeneID 10212),SID160727066,-0.817
WARS1 (GeneID 7453),SID160775265,-0.0686
WARS1 (GeneID 7453),SID160775274,0.29
WARS1 (GeneID 7453),SID160775285,3.01
AHSP (GeneID 51327),SID160740618,2.2
AHSP (GeneID 51327),SID160740619,-0.885
AHSP (GeneID 51327),SID160740620,0.288

3 of these entries in another layout.
Target gene | PubChem SID | G2 robust z-score
LYZL1 (GeneID 84569) | SID160752425 | -0.551
SYNC (GeneID 81493) | SID160735001 | 0.791
SYNC (GeneID 81493) | SID160750750 | 2.95
